Experimental data: PubChem BioAssay AID720505 (Drosophila RNAi Screening Center, 2013)

- Purpose: 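Fly regulators or components of the CRAC channel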 (primary screen)
- Cells: Drosophila S2R+ cells
- Reagents: long dsRNA against Drosophila genes
- Conditions: thapsigargin (2 µM) in calcium-free buffer to empty internal stores, then 2 mM calcium added back
- Detection: 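Fluo-4 signal in 384-well plates read on a FLIPR after thapsigargin (2 µM, calcium-free) store depletion and 2 mM calcium add-back; unnormalised mean endpoint per well; screen run twice, selected wells retested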
- Scale: calcium signal and retest calcium signal: higher = more calcium entry after store depletion
- Call rule: 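About 1500 genes called as lowering calcium entry, by varying amounts, judged against per-plate control wells with STIM1 as positive and Rho1 as negative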
- Calls: active = called as lowering calcium entry; inactive = not called
The screen tested about 20,000 reagents; below is an unselected part of those that have a named target and a result. Over the whole deposit, about 2,100 (10%) are marked active. 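Raw plate signals without normalisation; calls rest on control-based scores that were not deposited; replicate 2 separates called from uncalled poorly.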 Unmarked entries are inactive. Reagents against one gene are numbered here. A plus sign joins genes that one reagent is predicted to hit. Not stated in the record: the amount of reagent, the time to read-out.

gene	reagent no.	calcium signal, replicate 1	calcium signal, replicate 2	retest calcium signal, replicate 1	retest calcium signal, replicate 2
CG5653	1	118	56.5		
Yp1 (Yolk protein 1)	1	64.7 (active)	80.2		
CG13404	1	117	113		
Abca3 (ATP binding cassette subfamily A member 3)	1	226	81.5		
CG30026	1	90	125		
CG17404	1	118	114	103	93.2
pasha (partner of drosha)	1	105	110		
CG4465	1	174	143		
CG7091	1	102	99.9		
CG42784	1	74	111		
CG42784	2	128	106		
CG42784	3	120	154		
CG42784	4	72.5	128		
CG42784	5	150	145		
CG16756	1	61.9 (active)	84.7		
asRNA:CR31084 (antisense RNA:CR31084)	1	111	80.5		
CG9986	1	134	151		
Mesh1 (Metazoan SpoT homolog-1)	1	122	104		
Mccc2 (Methylcrotonoyl-CoA carboxylase 2)	1	114	213		
CG31886	1	100	82.5		
CG13609	1	168	149		
CG13609	2	104	102		
CG32694	1	101	109		
CG32694	2	101	97		
CG32694	3	73	113		
CG34328	1	82.7	117		
Smg6	1	255	314		
CG6664	1	109	109		
Prip	1	182	145		
Eaf (ELL-associated factor)	1	118	91.7		
Eaf (ELL-associated factor)	2	213	77.1		
Eaf (ELL-associated factor)	3	92.9	166		
cv-2 (crossveinless 2)	1	96.8	6587		
cv-2 (crossveinless 2)	2	171	101		
HisCl1 (Histamine-gated chloride channel subunit 1)	1	118	131		
LanA (Laminin A)	1	110	79.3		
CG31659	1	185	133		
RpL19 (Ribosomal protein L19)	1	77	80		

Next part; the last 7 above are carried over.
gene	reagent no.	calcium signal, replicate 1	calcium signal, replicate 2	retest calcium signal, replicate 1	retest calcium signal, replicate 2
Eaf (ELL-associated factor)	3	92.9	166		
cv-2 (crossveinless 2)	1	96.8	6587		
cv-2 (crossveinless 2)	2	171	101		
HisCl1 (Histamine-gated chloride channel subunit 1)	1	118	131		
LanA (Laminin A)	1	110	79.3		
CG31659	1	185	133		
RpL19 (Ribosomal protein L19)	1	77	80		
Blos4	1	78.4	69.4		
CG3918	1	71.7 (active)	112		
CG3918	2	102	152		
mnb (minibrain)	1	103	104		
mnb (minibrain)	2	83.6	109		
mnb (minibrain)	3	105	156		
CG12116	1	243	95		
eIF3h (eukaryotic translation initiation factor 3 subunit h)	1	88.9	167		
APC7 (Anaphase Promoting Complex subunit 7)	1	99.6	98.8		
sky (skywalker)	1	96	108		
sky (skywalker)	2	98.4	103		
sky (skywalker)	3	214	112		
CG11425	1	88.6	162		
Pnn (Pinin)	1	148	123		
Sec71 (Secretory 71)	1	133	102		
ND-24 (NADH dehydrogenase (ubiquinone) 24 kDa subunit)	1	156	117		
RpL7-like (Ribosomal protein L7-like)	1	69.7 (active)	83.1	82.6	112
CG10814	1	165	131		
CG14683	1	120	178		
CG31835 + CG42585	1	126	111		
Nup188 (Nucleoporin 188kDa)	1	177	67.1		
CG15564	1	183	122		
pasi2 (pasiflora 2)	1	55.4 (active)	80.6		
CG17224	1	79.7	116		
CG14490	1	93.1	141		
CG5096	1	150	142		
naz (nazgul)	1	207	130		
naz (nazgul)	2	136	162		
b6	1	137	138		
CG4829	1	87.3 (active)	81.6		
CG4306	1	93	140		
Skp2 + CG14645	1	99	135		
Appl (beta amyloid protein precursor-like)	1	106	140		
nac (neuronally altered carbohydrate)	1	69.4 (active)	191		
CG14395	1	141	112		
upd3 (unpaired 3)	1	98.2	115		
upd3 (unpaired 3)	2	90.8	91		
upd3 (unpaired 3)	3	125	249		
RNaseZ (Ribonuclease Z)	1	125	116		
CycB (Cyclin B)	1	66.5 (active)	189		
lectin-37Da	1	157	88.3	119	112
lectin-37Da	2	104	172		
gb (genderblind)	1	117	126		
Capr (Caprin)	1	65.5	164		
CG32061	1	69.5	129		
